Experimental data as given in patent publication US4148787A, “Antidiuretically effective polypeptide and a process for preparing the same” (Ferring AB, priority 1976, dated 1979).
At least one peptide structure holds a part that was inferred or is arguable (an end, a ring closure or a residue). Where a SMILES comes first, the peptide text is derived from it. Bridges are numbered along the chain shown (N, C = ends). [ ]: non-standard residue; d: D form. Mpa = O=C(O)CCS

Columns and labels:
Conditions in all cases: relative activity figure, DDAVP arbitrarily set at 1.00
[1] = Relative blood pressure (raising) activity in relation to DDAVP; format: in vivo
Text: (§1) Thus, the strenghts in Table I are expressed as relative activity figures, data for DDAVP as a comparative compound being arbitrarily set at 1.00.

[2] = Relative antidiuretic activity in relation to DDAVP; format: in vivo
Text: as §1

[3] = Relative uterotonic activity in relation to DDAVP
Text: as §1

Structure (SMILES)	Blood pressure (relative activity) [1]	Antidiuresis (relative activity) [2]	Uterotonic (relative activity) [3]
N=C(N)NCCC[C@@H](NC(=O)[C@@H]1CCCN1C(=O)[C@@H]1CSSCCC(=O)N[C@@H](Cc2ccc(O)cc2)C(=O)N[C@@H](Cc2ccccc2)C(=O)N[C@@H](CC(N)=O)C(=O)N[C@@H](CCC(N)=O)C(=O)N1)C(=O)NCC(N)=O [4-Asn-5-Gin-DDAVP, (Asn^4 --Gln^5)--desamino--D--Arg^8 --vasopressin] ([Mpa]YFNQCP[dR]G-NH2; disulfide 1-6)	< 0.30	0.40	< 0.02
N=C(N)NCCC[C@@H](NC(=O)[C@@H]1CCCN1C(=O)[C@@H]1CSSCCC(=O)N[C@@H](Cc2ccc(O)cc2)C(=O)N[C@@H](Cc2ccccc2)C(=O)N[C@@H](CC(N)=O)C(=O)N[C@@H](CC(N)=O)C(=O)N1)C(=O)NCC(N)=O [Peptide 4-Asn-DDAVP, (Asn^4)--desamino--D--Arg^8 vasopressin] ([Mpa]YFNNCP[dR]G-NH2; disulfide 1-6)	0.9	1.26	0.09
N=C(N)NCCC[C@@H](NC(=O)[C@@H]1CCCN1C(=O)[C@@H]1CSSCCC(=O)N[C@@H](Cc2ccc(O)cc2)C(=O)N[C@@H](Cc2ccccc2)C(=O)N[C@@H](CCC(N)=O)C(=O)N[C@@H](CCC(N)=O)C(=O)N1)C(=O)NCC(N)=O [Peptide 5-Gln-DDAVP, (Gln^5)--desamino--D--Arg^8 --vasopressin] ([Mpa]YFQQCP[dR]G-NH2; disulfide 1-6)	0.18	0.45	< 0.02
